# Test results taken from paper PMC12664368.
# Target: ankyrin repeat and BTB domain-containing protein 2 (ABTB2) (UniProt Q7TQI7)
# Test: affinity purification with mass spectrometry; lysate of Panc02 (ABTB2-OE) cells incubated with Protein A Dynabeads preloaded with anti-ABTB2 antibody, 10 min, washed 3 times, mild elution; Bruker timsTOF Pro
binder,measurement,value
"tumour necrosis factor receptor-associated protein 1 (TRAP1) (protein, UniProt Q9CQN1 61-706) STQAAEDKEEESLHSIISNTEAVRGSVSKHEFQAETKKLLDIVARSLYSEKEVFIRELISNASDALEKLRHKLVCEGQVLPEMEIHLQTDAKKGTITIQDTGIGMTQEELVSNLGTIARSGSKAFLEALQNQAETSSKIIGQFGVGFYSAFMVADKVEVYSRSAAPESPGYQWLSDGSGVFEIAEASGVRPGTKIIIHLKSDCKDFASESRVQDVVTKYSNFVSFPLYLNGKRINTLQAIWMMDPKDISEFQHEEFYRYIAQAYDKPRFTLHYKTDAPLNIRSIFYVPEMKPSMFDVSRELGSSVALYSRKVLIQTKAADILPKWLRFIRGVVDSEDIPLNLSRELLQESALIRKLRDVLQQRLIKFFIDQSKKDAEKYAKFFEDYGLFMREGIVTTAEQDIKEDIAKLLRYESSALPAGQLTSLPDYASRMQAGTRNIYYLCAPNRHLAEHSPYYEAMKQKHTEVLFCYEQFDELTLLHLREFDKKKLISVETDIVVDHYKEEKFEDTSPADERLSEKETEDLMAWMRNALGSRVTNVKVTFRLDTHPAMVTVLEMGAARHFLRMQQLAKTQEERAQLLQPTLEINPRHTLIKKLCQLRESEPELAQLLVDQIYENAMIAAGLVDDPRAMVGRLNDLLVKVLEKH",binding,binds

# Results are given in words; binding and its absence hold for the method and conditions named. Binding seen in cells or lysates may run through a third protein. These calls come from enrichment with a bait or labelling near it, and not all partners need be listed.
